Measurements from patent publication US20040073013A1 (Chugai, published 2004).
No constants are given. Whether binding was seen depends on the method and setting. Some binding calls cover weakened binding; strength is not graded here.

By UniProt entry, the sequences of proteins in these tests, tags left out. Residues count along the entry.
UniProt Q08722, residues 19-323: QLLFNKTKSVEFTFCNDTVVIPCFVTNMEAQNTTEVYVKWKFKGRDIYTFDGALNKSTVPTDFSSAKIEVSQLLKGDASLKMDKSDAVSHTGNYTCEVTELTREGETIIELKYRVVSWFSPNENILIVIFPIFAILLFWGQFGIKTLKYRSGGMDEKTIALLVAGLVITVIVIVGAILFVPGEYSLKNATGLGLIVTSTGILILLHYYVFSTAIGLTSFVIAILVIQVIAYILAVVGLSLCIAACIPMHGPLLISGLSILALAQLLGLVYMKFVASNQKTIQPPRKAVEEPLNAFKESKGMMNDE

B1: MABL2-scFv <HL-3> (scFv)
scFv: QVQLQQSGPELVKPGASVKMSCKASGYTFANHVIHWVKQKPGQGLEWIGYIYPYNDGTKYNEKFKDKATLTSDKSSTTAYMDLSSLASEDSAVYYCARGGYYTYDDWGQGTTLTVSSGGSDVVMTQSPLSLPVSLGDQASISCRSSQSLVHSNGKTYLHWYLQKPGQSPKLLIYKVSNRFSGVPDRFSGSGSVTDFTLMISRVEAEDLGVYFCSQSTHVPYTFGGGTKLEIKDYKDDDDK
B2: MABL2-scFv <HL-4> (scFv)
scFv: QVQLQQSGPELVKPGASVKMSCKASGYTFANHVIHWVKQKPGQGLEWIGYIYPYNDGTKYNEKFKDKATLTSDKSSTTAYMDLSSLASEDSAVYYCARGGYYTYDDWGQGTTLTVSSGGGSDVVMTQSPLSLPVSLGDQASISCRSSQSLVHSNGKTYLHWYLQKPGQSPKLLIYKVSNRFSGVPDRFSGSGSVTDFTLMISRVEAEDLGVYFCSQSTHVPYTFGGGTKLEIKDYKDDDDK
B3: MABL2-scFv <HL-5> (COS7 culture supernatant) (scFv)
scFv: QVQLQQSGPELVKPGASVKMSCKASGYTFANHVIHWVKQKPGQGLEWIGYIYPYNDGTKYNEKFKDKATLTSDKSSTTAYMDLSSLASEDSAVYYCARGGYYTYDDWGQGTTLTVSSGGGGSDVVMTQSPLSLPVSLGDQASISCRSSQSLVHSNGKTYLHWYLQKPGQSPKLLIYKVSNRFSGVPDRFSGSGSVTDFTLMISRVEAEDLGVYFCSQSTHVPYTFGGGTKLEIKDYKDDDDK
B4: MABL2-scFv <HL-6> (scFv)
scFv: QVQLQQSGPELVKPGASVKMSCKASGYTFANHVIHWVKQKPGQGLEWIGYIYPYNDGTKYNEKFKDKATLTSDKSSTTAYMDLSSLASEDSAVYYCARGGYYTYDDWGQGTTLTVSSGGGGGSDVVMTQSPLSLPVSLGDQASISCRSSQSLVHSNGKTYLHWYLQKPGQSPKLLIYKVSNRFSGVPDRFSGSGSVTDFTLMISRVEAEDLGVYFCSQSTHVPYTFGGGTKLEIKDYKDDDDK
B5: MABL2-scFv <HL-7> (scFv)
scFv: QVQLQQSGPELVKPGASVKMSCKASGYTFANHVIHWVKQKPGQGLEWIGYIYPYNDGTKYNEKFKDKATLTSDKSSTTAYMDLSSLASEDSAVYYCARGGYYTYDDWGQGTTLTVSSGGGGGGSDVVMTQSPLSLPVSLGDQASISCRSSQSLVHSNGKTYLHWYLQKPGQSPKLLIYKVSNRFSGVPDRFSGSGSVTDFTLMISRVEAEDLGVYFCSQSTHVPYTFGGGTKLEIKDYKDDDDK
B6: MABL2-scFv <LH-3> (scFv)
scFv: DVVMTQSPLSLPVSLGDQASISCRSSQSLVHSNGKTYLHWYLQKPGQSPKLLIYKVSNRFSGVPDRFSGSGSVTDFTLMISRVEAEDLGVYFCSQSTHVPYTFGGGTKLEIKSGGQVQLQQSGPELVKPGASVKMSCKASGYTFANHVIHWVKQKPGQGLEWIGYIYPYNDGTKYNEKFKDKATLTSDKSSTTAYMDLSSLASEDSAVYYCARGGYYTYDDWGQGTTLTVSSDYKDDDDK
B7: MABL2-scFv <LH-4> (scFv)
scFv: DVVMTQSPLSLPVSLGDQASISCRSSQSLVHSNGKTYLHWYLQKPGQSPKLLIYKVSNRFSGVPDRFSGSGSVTDFTLMISRVEAEDLGVYFCSQSTHVPYTFGGGTKLEIKSGGGQVQLQQSGPELVKPGASVKMSCKASGYTFANHVIHWVKQKPGQGLEWIGYIYPYNDGTKYNEKFKDKATLTSDKSSTTAYMDLSSLASEDSAVYYCARGGYYTYDDWGQGTTLTVSSDYKDDDDK
B8: MABL2-scFv <LH-5> (scFv)
scFv: DVVMTQSPLSLPVSLGDQASISCRSSQSLVHSNGKTYLHWYLQKPGQSPKLLIYKVSNRFSGVPDRFSGSGSVTDFTLMISRVEAEDLGVYFCSQSTHVPYTFGGGTKLEIKSGGGGQVQLQQSGPELVKPGASVKMSCKASGYTFANHVIHWVKQKPGQGLEWIGYIYPYNDGTKYNEKFKDKATLTSDKSSTTAYMDLSSLASEDSAVYYCARGGYYTYDDWGQGTTLTVSSDYKDDDDK
B9: MABL2-scFv <LH-6> (scFv)
scFv: DVVMTQSPLSLPVSLGDQASISCRSSQSLVHSNGKTYLHWYLQKPGQSPKLLIYKVSNRFSGVPDRFSGSGSVTDFTLMISRVEAEDLGVYFCSQSTHVPYTFGGGTKLEIKSGGGGGQVQLQQSGPELVKPGASVKMSCKASGYTFANHVIHWVKQKPGQGLEWIGYIYPYNDGTKYNEKFKDKATLTSDKSSTTAYMDLSSLASEDSAVYYCARGGYYTYDDWGQGTTLTVSSDYKDDDDK
B10: MABL2-scFv <LH-7> (scFv)
scFv: DVVMTQSPLSLPVSLGDQASISCRSSQSLVHSNGKTYLHWYLQKPGQSPKLLIYKVSNRFSGVPDRFSGSGSVTDFTLMISRVEAEDLGVYFCSQSTHVPYTFGGGTKLEIKSGGGGGGQVQLQQSGPELVKPGASVKMSCKASGYTFANHVIHWVKQKPGQGLEWIGYIYPYNDGTKYNEKFKDKATLTSDKSSTTAYMDLSSLASEDSAVYYCARGGYYTYDDWGQGTTLTVSSDYKDDDDK
B11: purified dimer of MABL2-scFv <HL-5> (scFv)
scFv 1: B3 scFv
scFv 2: B3 scFv
modifications: The two identical scFv chains form a non-covalent homodimer.

biological target: human Integrin Associated Protein (IAP) expressed on mouse leukemia cell line L1210 (human) (UniProt Q08722); assay: flow cytometry, FIGS. 40a and 40b

binding, binds:
B1
B2
B3
B4
B5
B6
B7
B8
B9
B10

biological target: human Integrin Associated Protein (IAP) expressed on mouse leukemia cell line L1210 (human) (UniProt Q08722); assay: flow cytometry, COS7 supernatant on L1210 cells expressing human IAP, anti-FLAG detection

binding, binds:
B1
B2
B3
B4
B5
B6
B7
B8
B9
B10

biological target: human Integrin Associated Protein (IAP) expressed on mouse leukemia cell line L1210 (human) (UniProt Q08722); assay: flow cytometry, purified protein on hIAP/L1210 cells against pCOS1/L1210 control cells, anti-FLAG detection

binding, binds:
B11

biological target: human Integrin Associated Protein (IAP) expressed on mouse leukemia cell line L1210 (human) (UniProt Q08722); assay: flow cytometry, FIG. 42

binding, binds:
B11
